The other results are listed elsewhere or left out.
Legend:
Test in all cases: glycan array binding signal (z-score within array); higher = stronger binding
Conditions in all cases: glycan notation: IUPAC condensed, linker removed
[1] = biological target: Neu5Ac(a2-3)Gal(b1-4)[Fuc(a1-3)]GlcNAc(b1-3)Gal(b1-4)GlcNAc
How it was run: (§1)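 Arrays were curated from the Consortium for Functional Glycomics database, 3228 in total, and kept only where the protein sequence was available. Binding is expressed as a within-array Z-score. This score was averaged across arrays of the same protein sequence at different concentrations or buffers and across linkers, and negative values can be read as non-binding.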

[2] = biological target: Neu5Ac(a2-3)Gal(b1-4)[Fuc(a1-3)]GlcNAc(b1-3)Gal(b1-4)[Fuc(a1-3)]GlcNAc(b1-3)Gal(b1-4)[Fuc(a1-3)]GlcNAc
How it was run: as §1

[3] = biological target: Neu5Ac(a2-3)Gal(b1-4)[Fuc(a1-3)]GlcNAc(b1-3)GalNAc
How it was run: as §1

[4] = biological target: Neu5Ac(a2-3)Gal(b1-4)[Fuc(a1-3)]GlcNAc(b1-6)[Gal(b1-3)]GalNAc
How it was run: as §1

[5] = biological target: Neu5Ac(a2-3)Gal(b1-4)[Fuc(a1-3)]GlcNAc(b1-6)[Neu5Ac(a2-3)Gal(b1-3)]GalNAc
How it was run: as §1

[6] = biological target: Neu5Ac(a2-3)Gal(b1-4)[Fuc(a1-3)]GlcNAc6S
How it was run: as §1

[7] = biological target: Neu5Ac(a2-3)Gal6S(b1-4)GlcNAc
How it was run: as §1

[8] = biological target: Neu5Ac(a2-3)Gal6S(b1-4)[Fuc(a1-3)]GlcNAc
How it was run: as §1

Neu5Ac(a2-3)GalNAc = biological target: Neu5Ac(a2-3)GalNAc
How it was run: as §1

[9] = biological target: Neu5Ac(a2-3)GalNAc(b1-4)GlcNAc
How it was run: as §1

[10] = biological target: Neu5Ac(a2-3)[GalNAc(b1-4)]Gal(b1-4)Glc
How it was run: as §1

[11] = biological target: Neu5Ac(a2-3)[GalNAc(b1-4)]Gal(b1-4)GlcNAc
How it was run: as §1

[12] = biological target: Neu5Ac(a2-3)[GalNAc(b1-4)]Gal(b1-4)GlcNAc(b1-3)GalNAc
How it was run: as §1

[13] = biological target: Neu5Ac(a2-3)[Neu5Ac(a2-6)]GalNAc
How it was run: as §1

Neu5Ac(a2-6)Gal = biological target: Neu5Ac(a2-6)Gal
How it was run: as §1

[14] = biological target: Neu5Ac(a2-6)Gal(b1-3)GlcNAc(b1-3)[Gal(b1-4)GlcNAc(b1-6)]Gal(b1-4)Glc
How it was run: as §1

Neu5Ac(a2-6)Gal(b1-4)Glc = biological target: Neu5Ac(a2-6)Gal(b1-4)Glc
How it was run: as §1

[15] = biological target: Neu5Ac(a2-6)Gal(b1-4)GlcNAc
How it was run: as §1

[16] = biological target: Neu5Ac(a2-6)Gal(b1-4)GlcNAc(b1-2)Man
How it was run: as §1

[17] = biological target: Neu5Ac(a2-6)Gal(b1-4)GlcNAc(b1-2)Man(a1-3)Man(b1-4)GlcNAc(b1-4)GlcNAc
How it was run: as §1

[18] = biological target: Neu5Ac(a2-6)Gal(b1-4)GlcNAc(b1-2)Man(a1-3)[Gal(b1-4)GlcNAc(b1-2)Man(a1-6)]Man(b1-4)GlcNAc(b1-4)GlcNAc
How it was run: as §1

[19] = biological target: Neu5Ac(a2-6)Gal(b1-4)GlcNAc(b1-2)Man(a1-3)[GlcNAc(b1-2)Man(a1-6)]Man(b1-4)GlcNAc(b1-4)GlcNAc
How it was run: as §1

[20] = biological target: Neu5Ac(a2-6)Gal(b1-4)GlcNAc(b1-2)Man(a1-3)[GlcNAc(b1-2)Man(b1-4)GlcNAc(b1-2)Man(a1-6)]Man(b1-4)GlcNAc(b1-4)GlcNAc
How it was run: as §1

[21] = biological target: Neu5Ac(a2-6)Gal(b1-4)GlcNAc(b1-2)Man(a1-3)[GlcNAc(b1-4)][Neu5Ac(a2-6)Gal(b1-4)GlcNAc(b1-2)Man(a1-6)]Man(b1-4)GlcNAc(b1-4)GlcNAc
How it was run: as §1

[22] = biological target: Neu5Ac(a2-6)Gal(b1-4)GlcNAc(b1-2)Man(a1-3)[Man(a1-6)]Man(b1-4)GlcNAc(b1-4)GlcNAc
How it was run: as §1

[23] = biological target: Neu5Ac(a2-6)Gal(b1-4)GlcNAc(b1-2)Man(a1-3)[Neu5Ac(a2-3)Gal(b1-4)GlcNAc(b1-2)Man(a1-6)]Man(b1-4)GlcNAc(b1-4)GlcNAc
How it was run: as §1

[24] = biological target: Neu5Ac(a2-6)Gal(b1-4)GlcNAc(b1-2)Man(a1-3)[Neu5Ac(a2-6)Gal(b1-4)GlcNAc(b1-2)Man(a1-6)]Man(b1-4)GlcNAc(b1-4)GlcNAc
How it was run: as §1

[25] = biological target: Neu5Ac(a2-6)Gal(b1-4)GlcNAc(b1-2)Man(a1-3)[Neu5Ac(a2-6)Gal(b1-4)GlcNAc(b1-2)Man(a1-6)]Man(b1-4)GlcNAc(b1-4)[Fuc(a1-6)]GlcNAc
How it was run: as §1

[26] = biological target: Neu5Ac(a2-6)Gal(b1-4)GlcNAc(b1-2)Man(a1-6)Man(b1-4)GlcNAc(b1-4)GlcNAc
How it was run: as §1

B1: GST-Gap1 (Streptococcus parasanguinis), A1C3L5 (protein)
chain: MFYFVPSWYNGQRQWYYDTPWWFRVKNRMTFDDSVNQVKMFLQGQEEIGLMILNYQPQLRYFLHKQNIFGIYYWSFFDDIQNITRSYTKIIHLKDLNWPEGCEFLYSPFAVVVRLKGEIFAIVNYAEDGNLHSVSFQKNGKVTKDYIFDDRGFLSSILYYDIDERPLYQDYLNINGVWQVREFLKKENDPTPILMINDFSDQTFSKKYYNGWEELIKERLAIFQNNHVENEDVFVLASDTQHNQLVSSIFKEHRKIYSFFGNRFNLENLGQDRISINDATFLVVDTEKNEELLRKTCENLVFKSIPIVRLSPFDSRLRLGHSQTVKEQIIYFHIDNIELDELYSVIAIILELMTLHLDIELRIVTFRQDFQLDLLKTWIIDFIKTNHFEDLLFKQISEGENEIEDEGEIELSRIAMECFTNENQIIKCLDTARLVIDLGIEPDLYTQIASISAGIPQINRVSSDYVIHQKNGLVISDISKLSSAIEFYFDGLFNWNEALIYAVRKMSDYTSGKILKQWKGMLKKK
B1 was tested, and the “glycan array binding signal (z-score)” value [1] was 1.55, the “glycan array binding signal (z-score)” value [2] was 0.525 and the “glycan array binding signal (z-score)” value [3] was 1.62. The “glycan array binding signal (z-score)” value [4] was 1.35, the “glycan array binding signal (z-score)” value [5] was -0.37 and the “glycan array binding signal (z-score)” value [6] was 0.406. For the same binder, the “glycan array binding signal (z-score)” value [7] was -0.226, the “glycan array binding signal (z-score)” value [8] was -0.201 and the “glycan array binding signal (z-score)” value (Neu5Ac(a2-3)GalNAc) was -0.568. For the same binder, the “glycan array binding signal (z-score)” value [9] was 0.072, the “glycan array binding signal (z-score)” value [10] was -0.656 and the “glycan array binding signal (z-score)” value [11] was -0.174. The “glycan array binding signal (z-score)” value [12] was 0.114, the “glycan array binding signal (z-score)” value [13] was -0.69 and the “glycan array binding signal (z-score)” value (Neu5Ac(a2-6)Gal) was -0.005. The “glycan array binding signal (z-score)” value [14] was -0.521, the “glycan array binding signal (z-score)” value (Neu5Ac(a2-6)Gal(b1-4)Glc) was -0.264 and the “glycan array binding signal (z-score)” value [15] was -0.228. The “glycan array binding signal (z-score)” value [16] was 1.38, the “glycan array binding signal (z-score)” value [17] was -0.001 and the “glycan array binding signal (z-score)” value [18] was 1.8. The “glycan array binding signal (z-score)” value [19] was -0.335, the “glycan array binding signal (z-score)” value [20] was 0.287 and the “glycan array binding signal (z-score)” value [21] was -0.168. For the same binder, the “glycan array binding signal (z-score)” value [22] was -0.313, the “glycan array binding signal (z-score)” value [23] was 0.84 and the “glycan array binding signal (z-score)” value [24] was -0.179. For the same binder, the “glycan array binding signal (z-score)” value [25] was 0.529 and the “glycan array binding signal (z-score)” value [26] was -0.148.

Reference: the supplement of paper PMC8728848
